The text below walks through data of article doi:10.1101/2025.03.28.645988.

By UniProt entry, the sequences of proteins in these tests, tags left out. Where a name states a change or a piece, a line headed by the entry shows the natural chain unless it says otherwise.
UniProt P25095: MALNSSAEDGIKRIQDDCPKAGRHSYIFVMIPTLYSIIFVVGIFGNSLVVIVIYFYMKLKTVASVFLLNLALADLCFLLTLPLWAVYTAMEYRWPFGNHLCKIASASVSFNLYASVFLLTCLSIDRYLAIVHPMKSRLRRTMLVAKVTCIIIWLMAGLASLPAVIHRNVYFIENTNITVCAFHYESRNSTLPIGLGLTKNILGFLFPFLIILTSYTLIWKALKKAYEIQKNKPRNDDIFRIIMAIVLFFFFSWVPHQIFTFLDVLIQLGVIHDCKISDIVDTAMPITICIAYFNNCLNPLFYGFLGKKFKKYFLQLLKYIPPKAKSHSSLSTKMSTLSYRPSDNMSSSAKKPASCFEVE
UniProt P29066: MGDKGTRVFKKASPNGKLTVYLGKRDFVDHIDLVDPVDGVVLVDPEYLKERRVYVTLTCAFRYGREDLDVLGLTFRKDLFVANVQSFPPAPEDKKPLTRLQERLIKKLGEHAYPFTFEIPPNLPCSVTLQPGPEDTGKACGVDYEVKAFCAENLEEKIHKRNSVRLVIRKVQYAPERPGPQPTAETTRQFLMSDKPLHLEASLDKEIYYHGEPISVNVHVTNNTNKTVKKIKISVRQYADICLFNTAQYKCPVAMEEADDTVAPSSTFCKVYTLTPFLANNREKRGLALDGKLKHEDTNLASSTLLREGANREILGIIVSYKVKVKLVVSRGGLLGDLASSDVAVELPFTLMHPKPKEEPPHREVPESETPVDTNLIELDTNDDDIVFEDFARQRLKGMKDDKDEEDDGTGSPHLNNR
UniProt P29067: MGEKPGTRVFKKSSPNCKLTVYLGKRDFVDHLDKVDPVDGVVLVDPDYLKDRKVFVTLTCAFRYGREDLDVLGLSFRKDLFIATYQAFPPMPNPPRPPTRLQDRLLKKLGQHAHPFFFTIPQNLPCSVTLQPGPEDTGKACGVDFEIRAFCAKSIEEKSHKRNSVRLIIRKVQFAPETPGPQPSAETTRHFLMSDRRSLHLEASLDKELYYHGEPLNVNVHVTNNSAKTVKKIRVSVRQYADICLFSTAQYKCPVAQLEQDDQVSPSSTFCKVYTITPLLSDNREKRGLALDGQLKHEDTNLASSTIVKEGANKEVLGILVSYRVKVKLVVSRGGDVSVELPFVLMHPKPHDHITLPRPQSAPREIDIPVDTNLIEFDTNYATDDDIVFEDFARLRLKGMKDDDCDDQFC

In the assay the target is DRY/AAY mutant AT1 angiotensin II receptor, Luciferase-tagged (AT1R-DRY-RLuc) (UniProt P25095). Nature of the assay: FRET or BRET; BRET between AT1R-Luciferase (wild type or DRY mutant) and mVenus-tagged β-arrestins in living β-arrestin1/2 double KO HEK293 cells; stimulation with 100 nM AngII; 37°C, modified Krebs-Ringer buffer pH 7.4, 5 μM coelenterazine h; ratios against DMSO-treated cells, AUC compared. (In general: Bioluminescence resonance energy transfer reports proximity on the nanometre scale.)

No constants are given. Whether binding was seen depends on the method and setting. Binding seen in cells or lysates may run through a third protein. A result given as binding can be weak or reduced; the word gives no strength.

Regarding “β-arrestin1-mVenus (rat β-arrestin1, wild type) (from UniProt P29066 1-418)”, the binding entry is on record as “binds”. With “β-arrestin2-mVenus (rat β-arrestin2, wild type) (from UniProt P29067 1-410)” the entry was “binds”.
